About 3,700 (1.2%) of roughly 300,000 compounds were called active. The shares of active, inactive and inconclusive entries below differ from those in the screen. The call rests on the fitted dose curve; tested in HEK293 cells. Potencies of inconclusive entries are doubtful fits and often do not repeat.
Assay: qHTS for Inhibitors of binding or entry into cells for Lassa Virus; further: nearly all actives have a fitted effect of over 50% in size
Details: Lassa virus pseudotype entry inhibition, cell reporter; series mostly up to 37.9 µM
Potency means the concentration at half of the fitted maximal effect.

| SMILES | Potency |
| --- | --- |
| Cc1ccc(NC(=O)CN2C(=O)COc3ccc(S(=O)(=O)NC4CCCC4)cc32)cc1N(C)C | inactive |
| COc1cc(Cl)c(S(=O)(=O)N2CCN(Cc3ccc4c(c3)OCO4)CC2)cc1Cl | inconclusive: 18.4 µM [activator, partial curve, poor fit] |
| COCCn1c(C)cc(C(=O)CSc2nc3ccccc3c(=O)[nH]2)c1C | inconclusive: 0.517 µM [activator, single point] |
| CCOc1cc2[nH]c(=O)n(CCCCCC(=O)NCc3ccco3)c(=O)c2cc1OCC | inactive |
| CC1=C(C(=O)Nc2ccc(Cl)cc2)C(c2ccccc2)n2ncc(C(=O)Nc3ccccc3)c2N1 (stereo not drawn) | inconclusive: 20 µM [inhibitor, single point] |
| CCOc1ccc(NC2=CC(=O)CCC2)cc1 | inconclusive: 3.98 µM [inhibitor, full curve] |
| COc1ccc(Cc2nnc(SCC(=O)Nc3ccc(N4CCOCC4)cc3)o2)cc1 | inconclusive: 35.5 µM [inhibitor, partial curve, poor fit] |
| CCOC(=O)c1cnn(CCOC(=O)c2ccccc2F)c1NC(=O)c1ccccc1F | inconclusive: 16.4 µM [inhibitor, partial curve, poor fit] |
| Cc1cc(/C=N/N2CCN(C)CC2)c(C)n1-c1ccc(Cl)cc1 | inconclusive: 35.5 µM [inhibitor, single point] |
| CC(C)(C)C(=O)Nc1nc(-c2ccccc2)ns1 | inconclusive: 20.6 µM [inhibitor, single point] |
| CC(CC(=O)N(CCC1=CCCCC1)c1c(N)n(Cc2ccccc2)c(=O)[nH]c1=O)c1ccccc1 (stereo not drawn) | inconclusive: 35.5 µM [inhibitor, single point] |
| Cc1oc(-c2ccccc2Cl)nc1CSc1nc2c(c(=O)[nH]1)CCC2 | inactive |
| COc1ccc(CCNC(=O)CC2SC(=NCCc3ccccc3)NC2=O)cc1OC (stereo not drawn) | inactive |
| CCC(=O)C1=C(c2ccc(C)cc2)N(C(=O)CC)n2c(nnc2C2CCCCC2)S1 | inconclusive: 12.6 µM [activator, partial curve, poor fit] |
| Clc1ccc(CN(CC2CCCO2)C(c2cccs2)c2nnnn2C2CCCC2)cc1 (stereo not drawn) | inconclusive: 32.6 µM [inhibitor, single point] |
| CC1=C(C(=O)Nc2ccccc2C)C(c2ccccn2)n2ncnc2N1 (stereo not drawn) | inactive |
| Cc1ccc(NC(=O)/C=C/c2ccc([N+](=O)[O-])s2)c(C)c1 | inconclusive: 6.31 µM [inhibitor, partial curve, poor fit] |
| COc1ccc(-c2cn(-c3ccc(C)cc3)c(=O)n2CC(=O)Nc2ccc(OC)c(OC)c2)cc1 | inconclusive: 7.94 µM [inhibitor, partial curve, poor fit] |
| COc1ccc(N2CCN(C(=O)c3ccc(COc4ccc([N+](=O)[O-])cc4)o3)CC2)cc1 | inconclusive: 11.2 µM [inhibitor, partial curve, poor fit] |
| O=C(CNC(=O)c1ccccc1F)OCc1nc2ccccc2s1 | inconclusive: 35.5 µM [activator, partial curve, poor fit] |
| CCOc1ccc(-c2c(C)nn3c(C)c(C(=O)Nc4cc(C)cc(C)c4)cnc23)cc1OCC | inactive |
| Cc1csc(NC(=O)Cc2ccc(F)cc2)n1 | inconclusive: 5.62 µM [activator, single point] |
| Cc1noc(/C=C/c2ccccn2)c1[N+](=O)[O-] | inconclusive: 6.31 µM [inhibitor, single point] |

Among those listed so far, these contain an aryl thioether with sulfur outside any ring.

| SMILES | Potency |
| --- | --- |
| COCCn1c(C)cc(C(=O)CSc2nc3ccccc3c(=O)[nH]2)c1C | inconclusive: 0.517 µM [activator, single point] |
| COc1ccc(Cc2nnc(SCC(=O)Nc3ccc(N4CCOCC4)cc3)o2)cc1 | inconclusive: 35.5 µM [inhibitor, partial curve, poor fit] |
| Cc1oc(-c2ccccc2Cl)nc1CSc1nc2c(c(=O)[nH]1)CCC2 | inactive |

Additional structures.

| SMILES | Potency |
| --- | --- |
| Cc1ccc(CN(C(=O)COc2cc(C)c(Cl)c(C)c2)c2ccccn2)o1 | inactive |
| CC(=O)N1c2ccc(S(=O)(=O)NCCC(=O)Nc3ncccc3C)cc2CC1C (stereo not drawn) | inactive |
| Fc1cccc(Cn2cc(C(=S)N3CCCCC3)c3ccccc32)c1 | inconclusive: 25.9 µM [inhibitor, single point] |
| CC(C)n1ncc2c(C(=O)NCCOc3ccccc3F)cc(C3CC3)nc21 | inconclusive: 35.5 µM [inhibitor, single point] |
| COc1ccc(C2=CSC3=NNC4(CCCCC4)NN23)cc1 | inconclusive: 12.6 µM [activator, partial curve, poor fit] |
| CCCOc1ccc(/C=N/Nc2cccc([N+](=O)[O-])c2)c(O)c1 | inconclusive: 35.5 µM [inhibitor, single point] |
| CCCCSCCCNC(=O)CCCN1C(=O)c2ccccc2Sc2ncccc21 | inconclusive: 4.47 µM [inhibitor, full curve, poor fit] |
| Cc1cccc(N2CCN(CC(=O)NCc3ccc(Cl)cc3)CC2)c1C | inconclusive: 8.91 µM [inhibitor, partial curve, poor fit] |
| O=C(NC1CCCCC1)c1ccc([N+](=O)[O-])o1 | inconclusive: 14.1 µM [inhibitor, single point] |
| CCOc1ccc(CCNC(=O)Cn2ccc3ccccc3c2=O)cc1OCC | inconclusive: 1.26 µM [inhibitor, single point] |
| O=C(CC1CC2CCC1C2)Nc1nc(-c2ccccn2)cs1 (stereo not drawn) | inconclusive: 2.82 µM [activator, partial curve, poor fit] |
| CC(C)c1nn2c(=O)cc(COC(=O)c3ccco3)nc2s1 | inactive |
| COc1cc(C(=O)Nc2ccc(NC(=O)c3cccc(Cl)c3)nc2)cc(OC)c1OC | inconclusive: 11.2 µM [inhibitor, partial curve, poor fit] |
| CC(C)c1nnc(NC(=O)C2CCCN2C(=O)Nc2ccc(F)cc2)s1 (stereo not drawn) | inactive |
| Cc1cccc(N2CC(C(=O)NC3CCCCCC3)CC2=O)c1C (stereo not drawn) | inactive |
| O=C(C1CC1)N1CCC(c2nc(-c3ccc(S(=O)(=O)NCC4CCCO4)cc3)no2)CC1 (stereo not drawn) | inconclusive: 10.3 µM [inhibitor, partial curve, poor fit] |
| COc1cccc(CN(C)C(=O)[C@@H](NC(=O)c2ccc(C)cc2)C(C)C)c1 | inconclusive: 1 µM [inhibitor, full curve, poor fit] |
| CCOC(=O)C1CCCN(C(=O)c2cc(S(=O)(=O)Nc3ccccc3OC)ccc2C)C1 (stereo not drawn) | inconclusive: 7.94 µM [inhibitor, partial curve, poor fit] |
| O=S(=O)(N/N=C/c1ccc(F)cc1)c1ccccc1 | inconclusive: 2.51 µM [activator, full curve] |
| Cc1sc2ncnc(N/N=C/c3ccccc3O)c2c1C | active: 10.3 µM |
| Cn1c(SCC(=O)NCc2ccccc2)nc2ccccc21 | inactive |
| C=CCN(CC=C)CC(=O)Nc1ccc(S(N)(=O)=O)cc1 | inconclusive: 11.2 µM [activator, partial curve, poor fit] |
| CCC(C)NS(=O)(=O)c1ccc(NC(=O)c2ccc([N+](=O)[O-])cc2Cl)cc1 (stereo not drawn) | inconclusive: 7.94 µM [activator, partial curve] |

Among those listed so far, 3 contain a thiophene ring, fused or not.

| SMILES | Potency |
| --- | --- |
| Clc1ccc(CN(CC2CCCO2)C(c2cccs2)c2nnnn2C2CCCC2)cc1 (stereo not drawn) | inconclusive: 32.6 µM [inhibitor, single point] |
| Cc1ccc(NC(=O)/C=C/c2ccc([N+](=O)[O-])s2)c(C)c1 | inconclusive: 6.31 µM [inhibitor, partial curve, poor fit] |
| Cc1sc2ncnc(N/N=C/c3ccccc3O)c2c1C | active: 10.3 µM |

Following part:

| SMILES | Potency |
| --- | --- |
| CCOc1ccc(-c2nc(N)ncc2Oc2cccc(OC)c2)c(O)c1 | inconclusive: 12.6 µM [inhibitor, partial curve, poor fit] |
| Cc1c(C(=O)OCC(=O)N2CC(C)OC(C)C2)oc2ccc(Br)cc12 (stereo not drawn) | inactive |
| Clc1ccc(OCCCCCN2CCOCC2)cc1 | inconclusive: 3.55 µM [inhibitor, single point] |
| COc1ccccc1-n1nc(C)cc1N | inactive |
| CCc1ccc(Cn2c(CNS(=O)(=O)c3ccc(C)c(C)c3)nc3cccnc32)cc1 | inactive |
| Cc1ccc(S(=O)(=O)N/N=C\c2ccc3c(c2)OCO3)cc1C | inconclusive: 20 µM [inhibitor, single point] |
| Cn1nc(-c2ccccc2F)c2cc(C(=O)Nc3ccc4c(c3)OCCO4)sc21 | inconclusive: 23.1 µM [inhibitor, partial curve] |
| CCOC(=O)c1c(NC(=O)COC(=O)c2nc(Cl)ccc2Cl)sc(C(=O)N(C)C)c1C | inactive |
| CCOc1ccc(S(=O)(=O)N2CCOCC2)cc1NC(=O)CCOc1ccc(C(C)(C)C)cc1 | inconclusive: 5.62 µM [inhibitor, partial curve, poor fit] |
| CC(C)(C)NC(=O)COC(=O)c1ccccc1Nc1ccc(SC(F)F)cc1 | inconclusive: 29.1 µM [inhibitor, single point] |
| C/C(=N\Nc1ncc(Cl)cc1Cl)c1ccc(C#N)cc1 | inactive |
| Fc1ccc(C2=Nn3c(nnc3-c3n[nH]c4c3CCC4)SC2)cc1 | inconclusive: 39.8 µM [inhibitor, partial curve, poor fit] |
| COc1ccc(NC(=O)Cn2c(=O)n(Cc3ccccc3)c(=O)c3sc4ccccc4c32)cc1 | inactive |
| C#CCNS(=O)(=O)c1ccc(F)cc1Br | inactive |
| Cn1nc(C(C)(C)C)c([N+](=O)[O-])c1C(=O)NCCO | inactive |
| Cc1cccc(NC(=O)CSCC(=O)N(C)Cc2c(F)cccc2Cl)c1 | inactive |
| Cc1cc(C)c2nc(Cl)c(CN(Cc3ccco3)C(=O)Nc3ccccc3C)cc2c1 | inconclusive: 5.8 µM [inhibitor, full curve, poor fit] |
| CCOC(=O)c1c(-c2ccc(C)cc2)csc1NC(=O)CCN1CC(C)OC(C)C1 (stereo not drawn) | inconclusive: 7.31 µM [inhibitor, partial curve] |
| Cc1ccc(N2CC(NC(=O)c3cc4ccccc4o3)CC2=O)cc1 (stereo not drawn) | inactive |
| Cc1ccc(-n2ncc3c(NCc4ccccc4)ncnc32)cc1 | inconclusive: 3.98 µM [activator, partial curve, poor fit] |
| COc1ccc(C(=O)CC(=O)c2ccccc2O)cc1OC | inactive |
| Cc1ccc(C2NC(=S)NC3=C2C(=O)CC(C)(C)C3)cc1 (stereo not drawn) | inactive |

— PubChem BioAssay AID540256 (National Center for Advancing Translational Sciences (NCATS), 2011)
